One substance from article PMC6700799 can be followed below.

The chains behind the UniProt entries cited, without tags or fusion partners.
UniProt P09429: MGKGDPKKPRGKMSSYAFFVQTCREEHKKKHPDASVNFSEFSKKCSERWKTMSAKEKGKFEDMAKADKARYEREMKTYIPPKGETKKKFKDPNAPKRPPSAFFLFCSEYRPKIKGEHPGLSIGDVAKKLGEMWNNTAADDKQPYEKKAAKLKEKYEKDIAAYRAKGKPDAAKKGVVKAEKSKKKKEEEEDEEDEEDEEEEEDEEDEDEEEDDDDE

This test has as its target T1, pHBLV-CMV-MCS-3flag-EF1-Zsgreen-puro tagged SEPT9 (UniProt Q9UHD8).
T1 sequence: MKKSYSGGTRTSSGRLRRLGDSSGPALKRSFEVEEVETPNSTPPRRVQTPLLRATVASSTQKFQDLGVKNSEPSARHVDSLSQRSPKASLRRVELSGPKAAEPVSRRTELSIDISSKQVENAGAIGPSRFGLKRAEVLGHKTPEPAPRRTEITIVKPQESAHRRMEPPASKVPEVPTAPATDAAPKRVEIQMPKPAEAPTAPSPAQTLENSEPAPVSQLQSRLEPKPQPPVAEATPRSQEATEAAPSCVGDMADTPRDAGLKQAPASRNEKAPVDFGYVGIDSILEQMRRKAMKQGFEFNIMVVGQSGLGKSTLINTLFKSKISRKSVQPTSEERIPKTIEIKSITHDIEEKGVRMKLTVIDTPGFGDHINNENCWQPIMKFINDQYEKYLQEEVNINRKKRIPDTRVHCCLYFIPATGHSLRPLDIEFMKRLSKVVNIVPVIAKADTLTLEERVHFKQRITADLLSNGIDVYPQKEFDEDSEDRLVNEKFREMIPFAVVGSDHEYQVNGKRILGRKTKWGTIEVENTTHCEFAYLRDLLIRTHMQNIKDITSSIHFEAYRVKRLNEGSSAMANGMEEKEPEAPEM
Kind of test: affinity purification with mass spectrometry; co-immunoprecipitation followed by LC-MS/MS; SEPT9-LV-CaSki compared with NC-LV-CaSki (legend of Figure S1); antibody used not stated.

Results are given in words; binding and its absence hold for the method and conditions named. In cells and extracts the contact can be indirect. A yes stands for co-enrichment or nearness to the bait. Other partners may have been found. Sequences can lack the tags named with a protein.

“HMGB1 protein (from UniProt P09429 1-215)”: the binding result was “binds”.
